Results published in publication PMC4096430.
Results are given in words; binding and its absence hold for the method and conditions named. In cells and extracts the contact can be indirect. Some binding calls cover weakened binding; strength is not graded here. Values belong to the substance of their own block, whether it stands above or below them.

Legend:
[1] = molecular target: c-Cbl (Casitas B-lineage lymphoma proto-oncoprotein), HA-tagged (UniProt P22681); assay: co-IP; HA-Cbl and Flag-tagged CIN85 mutants co-expressed in HEK293 cells; HA-Cbl immunoprecipitated by anti-HA antibody, CIN85 detected by anti-Flag immunoblot; lysis in 1% Triton X-100, 10% glycerol, 20 mM Hepes pH 7.4, 150 mM NaCl, 1 mM EDTA
[2] = molecular target: CIN85 (Cbl-interacting protein of 85 kDa), wild type, Flag-tagged (UniProt Q96B97); assay: cross-linking; lysate of HEK293 cells expressing the CIN85 mutant in 0.2 M triethanolamine pH 8.0; 100 uM dimethylpimelimidate (DMP), 1 hour at 4°C; stopped with 100 mM Tris-HCl pH 7.5; SDS-PAGE and western blot
[3] = molecular target: CIN85 (K645/646A), Flag-tagged (UniProt Q96B97); assay: as above
[4] = molecular target: CIN85 (K646/R648A), Flag-tagged (UniProt Q96B97); assay: as above
[5] = molecular target: CIN85 (R648/650A), Flag-tagged (UniProt Q96B97); assay: as above
[6] = molecular target: CIN85 with mutation of K645 alone (UniProt Q96B97); assay: cross-linking; results not shown; single point mutants of Group A; format not told (taken as the DMP cross-link of the other mutants)
[7] = molecular target: CIN85 with mutation of K646 alone (UniProt Q96B97); assay: as above
[8] = molecular target: CIN85 with mutation of K646, R648 and R650, Flag-tagged (UniProt Q96B97); assay: cross-linking; lysate of HEK293 cells expressing the CIN85 mutant in 0.2 M triethanolamine pH 8.0; 100 uM dimethylpimelimidate (DMP), 1 hour at 4°C; stopped with 100 mM Tris-HCl pH 7.5; SDS-PAGE and western blot
[9] = molecular target: CIN85 with mutation of R648 alone (UniProt Q96B97); assay: cross-linking; results not shown; single point mutants of Group A; format not told (taken as the DMP cross-link of the other mutants)
[10] = molecular target: CIN85 with mutation of R650 alone (UniProt Q96B97); assay: as above
[11] = molecular target: c-Cbl (Casitas B-lineage lymphoma proto-oncoprotein), HA-tagged (UniProt P22681); assay: co-IP; COS7 cells co-expressing CIN85 mutant and HA-Cbl, serum starved and stimulated with 25 ng/ml EGF for 30 minutes; HA-Cbl immunoprecipitated by anti-HA antibody; CIN85 mutants and EGFR detected by anti-Flag and anti-EGFR immunoblot

binding [4]: binds
Substance: CIN85 (K646/R648A), Flag-tagged (from UniProt Q96B97 1-665)

binding [5]: binds
Substance: CIN85 (R648/650A), Flag-tagged (from UniProt Q96B97 1-665)

binding [9]: binds
Substance: CIN85 with mutation of R648 alone (from UniProt Q96B97 1-665)

binding [10]: binds
Substance: CIN85 with mutation of R650 alone (from UniProt Q96B97 1-665)

binding [1]: binds | binding [11]: binds
Substance: CIN85-B4m (Group B: K627, K631, R632 and K635 mutated to alanine), Flag-tagged (from UniProt Q96B97 1-665)

Continued, substance first:

Substance: CIN85 (Cbl-interacting protein of 85 kDa), wild type, Flag-tagged (from UniProt Q96B97 1-665)
binding [1]: binds | binding [2]: binds

Substance: CIN85 (K645/646A), Flag-tagged (from UniProt Q96B97 1-665)
binding [3]: binds

Substance: CIN85 with mutation of K645 alone (from UniProt Q96B97 1-665)
binding [6]: binds

Substance: CIN85 with mutation of K646 alone (from UniProt Q96B97 1-665)
binding [7]: binds

Substance: CIN85 with mutation of K646, R648 and R650, Flag-tagged (from UniProt Q96B97 1-665)
binding [8]: binds
